According to PMC3897705:
No constants are given. Whether binding was seen depends on the method and setting. Binding seen in cells or lysates may run through a third protein. Some binding calls cover weakened binding; strength is not graded here.

Chains of the proteins cited; added tags and fusions are not shown. Residues count along the entry.
UniProt P21462: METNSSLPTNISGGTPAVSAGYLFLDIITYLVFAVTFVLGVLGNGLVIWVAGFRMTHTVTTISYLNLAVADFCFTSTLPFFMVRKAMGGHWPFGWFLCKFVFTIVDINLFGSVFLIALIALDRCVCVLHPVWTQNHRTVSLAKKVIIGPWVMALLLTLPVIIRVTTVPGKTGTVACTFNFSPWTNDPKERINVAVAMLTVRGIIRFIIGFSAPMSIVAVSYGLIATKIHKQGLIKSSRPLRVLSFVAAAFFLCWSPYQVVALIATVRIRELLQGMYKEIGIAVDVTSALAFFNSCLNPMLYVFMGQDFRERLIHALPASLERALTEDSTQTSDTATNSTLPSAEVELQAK
UniProt P25090: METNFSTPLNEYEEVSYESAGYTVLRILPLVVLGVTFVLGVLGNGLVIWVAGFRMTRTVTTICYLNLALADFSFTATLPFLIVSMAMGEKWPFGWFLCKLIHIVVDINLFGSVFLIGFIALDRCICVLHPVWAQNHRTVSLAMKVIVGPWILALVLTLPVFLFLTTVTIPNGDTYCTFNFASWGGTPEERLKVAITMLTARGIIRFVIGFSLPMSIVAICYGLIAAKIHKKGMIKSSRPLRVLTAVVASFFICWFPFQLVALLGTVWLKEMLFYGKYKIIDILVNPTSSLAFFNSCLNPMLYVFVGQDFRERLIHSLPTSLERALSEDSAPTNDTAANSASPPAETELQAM
UniProt Q03405, residues 23-305: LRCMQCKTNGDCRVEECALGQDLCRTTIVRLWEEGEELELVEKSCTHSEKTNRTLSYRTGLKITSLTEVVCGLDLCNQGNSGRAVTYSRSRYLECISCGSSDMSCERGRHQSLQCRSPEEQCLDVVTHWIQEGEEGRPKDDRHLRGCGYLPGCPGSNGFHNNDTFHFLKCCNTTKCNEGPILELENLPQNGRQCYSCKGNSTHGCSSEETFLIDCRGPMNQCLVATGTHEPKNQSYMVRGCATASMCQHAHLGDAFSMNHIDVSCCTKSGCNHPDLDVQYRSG

Tests used:
Assay in all cases: co-IP; Triton X-100-insoluble residue of the cells solubilized in RIPA buffer; 0.5 mg protein incubated 2 h at 4°C with 30 µg/ml anti-FPR1, anti-FPR3 (rabbit polyclonal) or anti-FPR2 (mouse monoclonal) antibody, protein A-Sepharose; Western blot with anti-uPAR antibodies (R2 or 399); nonimmune immunoglobulins as control
[1] = target: high-affinity N-formyl-peptide receptor (FPR1), transfected (UniProt P21462)
[2] = target: endogenous FPR1 of HEK-293 cells (human (endogenous in HEK-293)) (UniProt P21462)
[3] = target: T1, FPR-like2 (FPR3) (UniProt P25089)
T1 sequence: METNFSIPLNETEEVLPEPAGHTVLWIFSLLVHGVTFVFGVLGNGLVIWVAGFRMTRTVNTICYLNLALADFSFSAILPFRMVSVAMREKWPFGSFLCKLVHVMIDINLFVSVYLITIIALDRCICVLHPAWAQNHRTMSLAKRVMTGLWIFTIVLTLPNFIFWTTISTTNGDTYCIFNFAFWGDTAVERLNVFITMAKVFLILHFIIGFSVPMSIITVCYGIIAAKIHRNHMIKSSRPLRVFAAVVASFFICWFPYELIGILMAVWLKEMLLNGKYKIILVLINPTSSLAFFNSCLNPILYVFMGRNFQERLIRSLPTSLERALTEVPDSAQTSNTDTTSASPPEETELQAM

[4] = target: FPR-like 1 (FPR2) (UniProt P25090)

Measured: binding

urokinase-type plasminogen activator receptor (uPAR) (from UniProt Q03405 23-305)
binds: all assays above
